# Assay results taken from PubChem BioAssay AID1347076 (National Center for Advancing Translational Sciences (NCATS), 2019).
# Out of some 400,000 compounds screened, about 13,000 (3.2%) were called active. Inconclusive results, whose numbers are uncertain, are shown with a selection of clear calls. The call rests on the fitted dose curve; in most records, active means well fitted cell-killing curve with a large enough effect; inconclusive means small, poorly fitted or top-dose-only effect, or effect the other way; inactive means flat fitted curve, though single readings scatter. Potencies of inconclusive entries are doubtful fits and often do not repeat.
# Test: qHTS assay for MDR1-selective chemotherapeutics: Primary screen using the drug-selected MDR subline cells KB-V1; further: nearly all actives have a fitted effect of over 60% in size
# Conditions: KB-V1 MDR cells viability, CellTiter-Glo, 72 h; series mostly up to 46.1 µM
# Outline: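 In this primary screen, KB-V1 cells overexpressing P-gp are incubated with library compounds (lowest to highest concentration) for 72 h at 37 degrees C before a luminescent ATP viability read.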
# Potency means the concentration at half of the fitted maximal effect.
row,Compound,Potency
1,CCCCNC(=O)OCCNC(=O)NC,"inconclusive: 29.1 µM [rising, single point]"
2,O=C(Nc1ccc2c(c1)OCCO2)c1cccc(S(=O)(=O)N2CCCCC2)c1,active: 16.4 µM
3,COc1ccc(OC)c2sc(N3CCN(C(=O)c4ccc([N+](=O)[O-])s4)CC3)nc12,"inconclusive: 18.4 µM [cytotoxic, partial curve]"
4,CC(NC(=O)CN1C(=O)NC(c2ccccc2)(c2ccccc2)C1=O)c1cccs1 (stereo unspecified),"inconclusive: 20.6 µM [cytotoxic, single point]"
5,COc1ccccc1NC(=O)CSc1nc2ccccc2c(=O)n1CCNC(C)=O,"inconclusive: 9.2 µM [cytotoxic, partial curve]"
6,COc1ccc(-c2cnc3c(NC=O)cc(-c4ccc(F)cc4)cn23)cc1OC,"inconclusive: 0.366 µM [cytotoxic, full curve, poor fit]"
7,CCOC(=O)N1CCN(C(=O)Nc2sc3nc4n(c(=O)c3c2C)CCC(C)CC4)CC1 (stereo unspecified),inactive
8,Cc1cc(NC(=O)OC(C)(C)C)c(-n2nnnc2C(C(=O)c2ccc3c(c2)OCO3)N2CCN(c3ccccn3)CC2)cc1C (stereo unspecified),"inconclusive: 5.8 µM [cytotoxic, partial curve, poor fit]"
9,NC(=O)COC(=O)c1cccc2c1-c1ccccc1C2=O,"inconclusive: 8.2 µM [rising, partial curve]"
10,C(=C\c1ccccc1)/CN1CCN(C(CCc2ccccc2)c2nnnn2C2CCCCC2)CC1 (stereo unspecified),"inconclusive: 29.1 µM [cytotoxic, single point]"
11,CC(C)CNS(=O)(=O)c1ccc(CCC(=O)N2CCN(c3ccccc3)CC2)cc1,"inconclusive: 6.51 µM [cytotoxic, partial curve]"
12,COc1ccc(S(=O)(=O)N2CCOC2CNC(=O)C(=O)NCCN2CCOCC2)cc1C (stereo unspecified),"inconclusive: 29.1 µM [rising, single point]"
13,CC(C)Sc1cc(N2CCCC2)nc(-c2ccc(F)cc2)n1,inactive
14,O=C(c1ccccc1)N1N=C(C(F)(F)F)CC1(O)c1ccc(F)cc1 (stereo unspecified),inactive
15,Cc1ccc(C)c(S(=O)(=O)N2CCN(C(=O)CCc3nc4ccccc4c(=O)[nH]3)CC2)c1,inactive
16,O=C1C2C3C=CC(C4CC34)C2C(=O)N1/N=C/c1ccc(-c2ccc([N+](=O)[O-])cc2)o1 (stereo unspecified),inactive
17,CCn1c(=O)cc(SCC(=O)NCCc2cccc(C)c2)c2ccccc21,inactive
18,C[C@H](CO)N1C[C@H](C)[C@@H](CN(C)S(=O)(=O)c2ccc(F)cc2)Oc2ccc(NS(=O)(=O)c3ccc(F)cc3)cc2C1=O,"inconclusive: 29.1 µM [rising, single point]"
19,NC(=O)C1CCN(C(=O)CSc2ccsc2[N+](=O)[O-])CC1,"inconclusive: 29.1 µM [rising, single point]"
20,Cc1c(C(N)=O)sc2ncn(CC(=O)OC(C)C)c(=O)c12,inactive
21,CCC1COCCS(=O)(=O)N1Cc1ccccc1 (stereo unspecified),"inconclusive: 0.651 µM [rising, full curve]"
22,Cc1ccc(C(=O)CSc2n[nH]c(C)n2)cc1,"inconclusive: 3.66 µM [rising, full curve, poor fit]"
23,COc1cc(C2N=C(N)Nc3nc4ccccc4n32)ccc1OCC(=O)O (stereo unspecified),inactive

# Grouped by structure, the compounds so far with two or more sulfur atoms (3)
row,Compound,Potency
3,COc1ccc(OC)c2sc(N3CCN(C(=O)c4ccc([N+](=O)[O-])s4)CC3)nc12,"inconclusive: 18.4 µM [cytotoxic, partial curve]"
18,C[C@H](CO)N1C[C@H](C)[C@@H](CN(C)S(=O)(=O)c2ccc(F)cc2)Oc2ccc(NS(=O)(=O)c3ccc(F)cc3)cc2C1=O,"inconclusive: 29.1 µM [rising, single point]"
19,NC(=O)C1CCN(C(=O)CSc2ccsc2[N+](=O)[O-])CC1,"inconclusive: 29.1 µM [rising, single point]"

# The results go on:

row,Compound,Potency
1,COc1cc(NC(=O)CCNS(=O)(=O)c2cc(Br)cnc2N)cc(OC)c1,inactive
2,COC(=O)c1cccc(S(=O)(=O)N2CCC(NC(=O)NC34CC5CC(CC(C5)C3)C4)CC2)c1,active: 11.6 µM
3,COc1ccc(N/C=C/C(=O)c2sc(-c3ccccc3)nc2C)cc1,active: 18.4 µM
4,COc1ccc(OC)c(C2=Nn3c(nnc3-c3cc(OC)c(OC)c(OC)c3)SC2)c1,active: 1.3 µM
5,CCOC(=O)c1noc2ncnc(N3CCN(c4cccc(Cl)c4)CC3)c12,"inconclusive: 29.1 µM [cytotoxic, single point]"
6,COc1ccc2[nH]c(=O)c(CN(Cc3ccco3)Cc3nnnn3Cc3ccccc3)cc2c1,active: 7.31 µM
7,CCC(C)Nc1nc(SC(C(C)=O)C(C)=O)nc(N(C)C)n1 (stereo unspecified),inactive
8,COc1ccc(Oc2cc(Cl)nc(N)n2)cc1,"inconclusive: 18.4 µM [rising, single point]"
9,O=Cc1ccc(-c2ccc([N+](=O)[O-])cc2Cl)o1,"inconclusive: 16.4 µM [cytotoxic, single point]"
10,COC(=O)C1CCN(S(=O)(=O)c2cc3c4c(c2)CCN4C(=O)CC3)CC1,inactive
11,S=C(NCc1ccco1)Nc1ccc(Cl)cc1Cl,active: 18.4 µM
12,N#C/C(=N\Nc1ccc(Cl)cc1)C(=O)c1ccsc1,"inconclusive: 0.0065 µM [cytotoxic, full curve, poor fit]"
13,COC(=O)C1=CN(Cc2cccs2)C=C(C(=O)OC)C1c1ccc(OC)cc1OC,inactive
14,COc1cccc(OC2(C)CCN(Cc3cccn3-c3nccs3)C2)c1 (stereo unspecified),"inconclusive: 29.1 µM [cytotoxic, partial curve, poor fit]"
15,COc1ccc(-c2nnc(SCC(=O)c3cccs3)o2)c(OC)c1,"inconclusive: 16.4 µM [cytotoxic, partial curve]"
16,COc1ccc(/C=C/C(=O)c2ccc(NC3=NCCCS3)cc2)cc1OC,"inconclusive: 5.8 µM [cytotoxic, partial curve]"
17,COc1ccc(N2CCN(c3nc4ccccn4c(=O)c3/C=C(\C#N)S(=O)(=O)c3ccccc3)CC2)cc1,inactive
18,Cc1ccc2cc(CCNC(=O)c3cccs3)c(=O)[nH]c2c1,"inconclusive: 13 µM [cytotoxic, partial curve, poor fit]"
19,O=C(COc1ccc([N+](=O)[O-])cc1)NCc1ccccc1,inactive
20,Cc1cc(C)cc(NC(=O)Cn2nnc(C(=O)NCc3ccccc3Cl)c2N)c1,inactive
21,CCOc1ccc(-c2cc(CCCC(=O)NCc3ccc(C)cc3)no2)cc1,inactive
22,CCc1ccc(S(=O)(=O)c2nnn3c2nc(Nc2cc(OC)cc(OC)c2)c2cc(Cl)ccc23)cc1,"inconclusive: 10.3 µM [rising, partial curve]"
23,C/C(=N/NS(=O)(=O)c1ccc(C)cc1C)c1c[nH]c2ccccc12,inactive
